Assay results taken from BindingDB's records for doi:10.1038/305140a0 (College of France, 1983).
Several values for one entry are separate records, joined by “and”; a condition that tells them apart may be missing. Equal values may be shown once.

Biological target: T1, 5-hydroxytryptamine receptor 1A (Rattus norvegicus, UniProt P19327)
T1 sequence (P19327 whole entry): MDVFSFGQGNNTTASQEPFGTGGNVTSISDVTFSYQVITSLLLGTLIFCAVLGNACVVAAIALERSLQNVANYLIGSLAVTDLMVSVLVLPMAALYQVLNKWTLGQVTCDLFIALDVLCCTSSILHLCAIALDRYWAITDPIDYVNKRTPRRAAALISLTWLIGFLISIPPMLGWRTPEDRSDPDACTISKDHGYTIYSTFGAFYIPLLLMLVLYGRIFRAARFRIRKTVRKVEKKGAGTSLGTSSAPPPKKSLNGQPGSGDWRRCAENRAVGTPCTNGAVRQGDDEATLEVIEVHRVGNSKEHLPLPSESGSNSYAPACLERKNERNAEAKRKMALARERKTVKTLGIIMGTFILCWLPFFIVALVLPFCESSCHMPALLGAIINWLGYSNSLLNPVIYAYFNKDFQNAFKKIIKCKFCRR

`CN1CCC(=C2c3ccccc3C=Cc3ccccc32)CC1` [5-(1-methylpiperidylidene-4)-5H-dibenzo(a,d)cyclopheptene] was tested, and the Ki was 0.977 µM and 5.25 µM.
